Publication PMC5742674
Results are given in words; binding and its absence hold for the method and conditions named. In cells and extracts the contact can be indirect.

Protein sequences, listed by entry. Tags and fused reporters are not part of them.
UniProt O88597: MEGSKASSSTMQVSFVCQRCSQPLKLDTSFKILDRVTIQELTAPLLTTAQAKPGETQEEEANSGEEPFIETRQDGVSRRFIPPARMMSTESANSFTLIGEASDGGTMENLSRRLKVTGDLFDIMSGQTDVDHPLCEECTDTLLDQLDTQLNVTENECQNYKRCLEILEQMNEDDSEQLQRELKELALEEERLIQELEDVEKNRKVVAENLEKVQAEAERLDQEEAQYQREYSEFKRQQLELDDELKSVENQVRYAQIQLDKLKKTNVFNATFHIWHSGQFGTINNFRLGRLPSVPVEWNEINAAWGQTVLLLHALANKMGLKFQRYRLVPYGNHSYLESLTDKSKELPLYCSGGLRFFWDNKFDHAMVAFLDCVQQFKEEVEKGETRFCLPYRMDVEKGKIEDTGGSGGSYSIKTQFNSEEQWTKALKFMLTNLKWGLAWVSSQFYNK

Molecular target: T1, toll‐like receptor 3 (TLR3) (mouse (endogenous in heart tissue)) (UniProt Q99MB1)
T1 sequence: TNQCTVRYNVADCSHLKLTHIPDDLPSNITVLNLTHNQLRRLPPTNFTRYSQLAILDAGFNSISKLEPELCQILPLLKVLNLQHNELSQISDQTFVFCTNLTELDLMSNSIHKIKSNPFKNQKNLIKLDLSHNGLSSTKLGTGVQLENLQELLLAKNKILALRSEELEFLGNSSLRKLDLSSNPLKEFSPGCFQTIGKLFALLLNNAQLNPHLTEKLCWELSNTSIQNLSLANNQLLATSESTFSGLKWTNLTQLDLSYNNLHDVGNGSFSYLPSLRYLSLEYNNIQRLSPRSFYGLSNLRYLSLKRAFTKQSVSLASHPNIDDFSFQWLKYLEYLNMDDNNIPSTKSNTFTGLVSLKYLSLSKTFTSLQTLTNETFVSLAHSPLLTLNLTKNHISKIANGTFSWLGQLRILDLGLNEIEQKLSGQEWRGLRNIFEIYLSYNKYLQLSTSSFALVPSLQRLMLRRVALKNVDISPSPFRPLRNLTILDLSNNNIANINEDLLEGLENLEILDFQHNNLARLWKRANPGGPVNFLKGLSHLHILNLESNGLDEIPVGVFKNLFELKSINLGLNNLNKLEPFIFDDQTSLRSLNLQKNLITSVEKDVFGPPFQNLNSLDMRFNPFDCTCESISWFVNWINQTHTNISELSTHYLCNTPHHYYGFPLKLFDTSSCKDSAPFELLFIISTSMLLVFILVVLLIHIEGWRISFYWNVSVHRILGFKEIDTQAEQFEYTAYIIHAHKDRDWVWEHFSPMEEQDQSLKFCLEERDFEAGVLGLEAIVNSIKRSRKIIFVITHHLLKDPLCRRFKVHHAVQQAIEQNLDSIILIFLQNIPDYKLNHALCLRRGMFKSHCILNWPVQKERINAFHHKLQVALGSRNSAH
Assay: co-IP; mouse heart tissue lysates (RIPA buffer, 300 μg total protein; sham or infarct myocardium, 4 weeks after MI), pre-incubated with isotype IgG, precipitated with 6 μg anti-TLR3 antibody overnight at 4°C and protein G-agarose, then Western blot; IP with isotype IgG as control

For beclin‐1 (from UniProt O88597 1-448), the binding was “no binding”.
